For at least one compound, name, drawing or mass did not settle the structure.
Tested on: RLE-6TN cells
Test: RLE-6TN cell survival and recovery under hyperoxia, viable cells by trypan blue exclusion
Assay type: cell-based, rat
Settings: 72 hours hyperoxia, 10^−6M T3 and 100 nM wortmannin
Experimental: FIG. 7. […] The cells were cultured in DMEM/F12 with 10% FBS in 21% O2 and 5% CO2 overnight. […] The viable cells are counted immediately after 72-hour hyperoxia exposure. Cell viability is assessed with trypan blue. The amount of viable cells under specific conditions is presented as a percentage of the cell number from hyperoxia alone. Data are mean±s.d. of four independent experiments with *=P<0.05; **=P<0.01.
FIG. 8. […] In both (A) and (B), the number of viable cells under specific conditions is presented as a percentage of the cell number related to hyperoxia alone in the same experiment. Data are mean±s.d. of four independent experiments with *=P<0.05; **=P<0.01.
FIG. 10. HO-1 Upregulation is required for T3-increased RLE-6TN cell survival in hyperoxia. […] The cells were then collected for Western Blot analysis. (B) The cells were incubated in 21% O2 and 5% CO2 for 72 hours in the present of HO-1 inhibitor Tin Protoporphyrin IX(10^-6M) tinT3 (10^−6M). […] Cell viability is assessed with trypan blue. The number of viable cells under specific conditions is presented as a percentage of the cell number related to hyperoxia alone. Data are mean±s.d. of three independent experiments with *=P<0.05; **=P<0.01.
FIG. 11. […] Cell viability is assessed with trypan blue. […]
At the end of the hyperoxia exposure period, the viable cells were counted by trypan blue dye exclusion.

COC[C@H]1OC(=O)c2coc3c2[C@@]1(C)C1=C(C3=O)[C@@H]2CCC(=O)[C@@]2(C)C[C@H]1OC(C)=O [wortmannin]
effect on T3-induced cell survival during hyperoxia: blocked
